Measured values from publication PMC12772958.
Residue numbers refer to the chain shown, from its start. No constants are given. Whether binding was seen depends on the method and setting. In cells and extracts the contact can be indirect. Here binding means that the protein was enriched with, or labelled near, the bait; the list need not be complete.

Chains of the proteins cited; added tags and fusions are not shown.
UniProt O15117: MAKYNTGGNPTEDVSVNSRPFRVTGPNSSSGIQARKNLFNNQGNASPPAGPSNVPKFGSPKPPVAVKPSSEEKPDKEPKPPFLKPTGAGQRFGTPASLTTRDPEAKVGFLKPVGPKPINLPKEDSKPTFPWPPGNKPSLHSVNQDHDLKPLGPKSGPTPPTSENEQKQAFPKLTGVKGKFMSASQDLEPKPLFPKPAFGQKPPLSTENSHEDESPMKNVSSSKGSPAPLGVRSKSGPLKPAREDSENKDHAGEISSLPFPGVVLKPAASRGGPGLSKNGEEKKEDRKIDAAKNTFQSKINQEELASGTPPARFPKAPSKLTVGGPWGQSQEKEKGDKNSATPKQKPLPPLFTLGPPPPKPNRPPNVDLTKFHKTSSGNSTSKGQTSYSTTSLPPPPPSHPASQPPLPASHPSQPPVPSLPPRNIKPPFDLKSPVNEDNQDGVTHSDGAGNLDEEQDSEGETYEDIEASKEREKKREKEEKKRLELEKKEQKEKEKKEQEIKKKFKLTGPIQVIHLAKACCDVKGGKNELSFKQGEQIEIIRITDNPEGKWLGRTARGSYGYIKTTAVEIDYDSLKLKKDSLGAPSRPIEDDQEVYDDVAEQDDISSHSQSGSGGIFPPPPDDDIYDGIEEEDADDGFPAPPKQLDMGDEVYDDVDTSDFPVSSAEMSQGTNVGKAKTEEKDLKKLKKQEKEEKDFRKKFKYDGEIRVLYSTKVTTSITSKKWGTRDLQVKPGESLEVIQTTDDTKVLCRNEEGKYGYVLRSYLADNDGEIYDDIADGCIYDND
UniProt P42768: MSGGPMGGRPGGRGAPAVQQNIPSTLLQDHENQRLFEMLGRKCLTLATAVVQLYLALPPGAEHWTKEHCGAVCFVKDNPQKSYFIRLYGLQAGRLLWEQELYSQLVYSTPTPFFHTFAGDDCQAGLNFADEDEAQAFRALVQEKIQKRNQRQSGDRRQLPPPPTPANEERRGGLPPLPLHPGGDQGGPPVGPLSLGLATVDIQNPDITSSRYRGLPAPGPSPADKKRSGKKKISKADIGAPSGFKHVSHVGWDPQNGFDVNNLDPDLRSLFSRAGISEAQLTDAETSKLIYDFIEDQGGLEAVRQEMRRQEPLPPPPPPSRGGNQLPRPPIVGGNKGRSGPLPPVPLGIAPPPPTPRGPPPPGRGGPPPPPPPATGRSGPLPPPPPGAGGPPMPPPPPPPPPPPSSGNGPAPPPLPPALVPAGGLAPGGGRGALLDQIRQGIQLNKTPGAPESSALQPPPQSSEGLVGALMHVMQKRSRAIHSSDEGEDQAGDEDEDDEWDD

T1: BirA*–MYO1F tail PHmut (human) (UniProt O00160)
T1 sequence: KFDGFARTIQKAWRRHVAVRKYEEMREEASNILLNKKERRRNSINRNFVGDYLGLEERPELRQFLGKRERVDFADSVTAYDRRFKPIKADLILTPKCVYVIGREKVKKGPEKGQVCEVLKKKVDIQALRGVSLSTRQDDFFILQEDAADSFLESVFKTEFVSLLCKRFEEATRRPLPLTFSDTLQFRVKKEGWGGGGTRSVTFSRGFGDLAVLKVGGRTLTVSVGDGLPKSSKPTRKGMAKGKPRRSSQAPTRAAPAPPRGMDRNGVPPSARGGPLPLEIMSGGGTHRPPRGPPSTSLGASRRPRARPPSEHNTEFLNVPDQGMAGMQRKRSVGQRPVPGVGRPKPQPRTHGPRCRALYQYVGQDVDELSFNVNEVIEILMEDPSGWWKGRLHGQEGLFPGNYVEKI

T2: BirA*–MYO1F tail (human) (UniProt O00160)
T2 sequence: T1 sequence with A79K, A89R

B1: SH3 domain-binding protein 2 (SH3BP2) (protein, UniProt P78314 1-561)
chain: MAAEEMHWPVPMKAIGAQNLLTMPGGVAKAGYLHKKGGTQLQLLKWPLRFVIIHKRCVYYFKSSTSASPQGAFSLSGYNRVMRAAEETTSNNVFPFKIIHISKKHRTWFFSASSEEERKSWMALLRREIGHFHEKKDLPLDTSDSSSDTDSFYGAVERPVDISLSPYPTDNEDYEHDDEDDSYLEPDSPEPGRLEDALMHPPAYPPPPVPTPRKPAFSDMPRAHSFTSKGPGPLLPPPPPKHGLPDVGLAAEDSKRDPLCPRRAEPCPRVPATPRRMSDPPLSTMPTAPGLRKPPCFRESASPSPEPWTPGHGACSTSSAAIMATATSRNCDKLKSFHLSPRGPPTSEPPPVPANKPKFLKIAEEDPPREAAMPGLFVPPVAPRPPALKLPVPEAMARPAVLPRPEKPQLPHLQRSPPDGQSFRSFSFEKPRQPSQADTGGDDSDEDYEKVPLPNSVFVNTTESCEVERLFKATSPRGEPQDGLYCIRNSSTKSGKVLVVWDETSNKVRNYRIFEKDSKFYLEGEVLFVSVGSMVEHYHTHVLPSHQSLLLRHPYGYTGPR
B2: GOLGA8R (protein, UniProt I6L899 1-631)
chain: MAEETQHNKLAAAKKKLKEYWQKNRPRVPAGVNRNRKTNGSIPETATSGGCQPPGDSATGFHREGPTSSATLKDLESPCQERAVVLDSTSVKISRLKNTIKSLKQQKKQVEHQLEEEKKANNERQKAERVLEVQIQTLIIQKEELNTDLYHMERSLRYFEEESKDLAVRLQHSLQCKGELERALSAVIATEKKKANQLSSCSKAHTEWELEQSLQDQALLKAQLTQLKESFQQLQLERDECAEHIEGERARWHQRMSKMSQEICTLKKEKQDMRWVEQLEWSLSKLKNQTAEPLPPEPPAVPSEVELQHLRKELERVAGELQSQVKNNQHISLLNRRQEERIREQEERLRKQEERLQEQHEKLRQLAKPQSVFEELNNENKSTLQLEQQVKELQEKLGEEHLEVASQQNQQLTAQLSLMALPGEGHGGEHLDSEGEEAPQPMPSVPEDPESREAMSSFMDHLKEKADLSELLKKQELRFIQYWQERCHQKIHHLLSEPGGRAKDAALGGGHHQAGAQGGDEGEAAGAAADGIAAYSNYNNGHRKFLAAAHNSADEPGPGAPAPQELGAADKHGDLREVTLTSSAQGEAREDPLLDKPTAQPIVQDHQEHPGLGSNCCVPLFCWAWLPRRRR
B3: ADD3 (adducin gamma) (protein, UniProt Q9UEY8 1-706)
chain: MSSDASQGVITTPPPPSMPHKERYFDRINENDPEYIRERNMSPDLRQDFNMMEQRKRVTQILQSPAFREDLECLIQEQMKKGHNPTGLLALQQIADYIMANSFSGFSSPPLSLGMVTPINDLPGADTSSYVKGEKLTRCKLASLYRLVDLFGWAHLANTYISVRISKEQDHIIIIPRGLSFSEATASNLVKVNIIGEVVDQGSTNLKIDHTGFSPHAAIYSTRPDVKCVIHIHTLATAAVSSMKCGILPISQESLLLGDVAYYDYQGSLEEQEERIQLQKVLGPSCKVLVLRNHGVVALGETLEEAFHYIFNVQLACEIQVQALAGAGGVDNLHVLDFQKYKAFTYTVAASGGGGVNMGSHQKWKVGEIEFEGLMRTLDNLGYRTGYAYRHPLIREKPRHKSDVEIPATVTAFSFEDDTVPLSPLKYMAQRQQREKTRWLNSPNTYMKVNVPEESRNGETSPRTKITWMKAEDSSKVSGGTPIKIEDPNQFVPLNTNPNEVLEKRNKIREQNRYDLKTAGPQSQLLAGIVVDKPPSTMQFEDDDHGPPAPPNPFSHLTEGELEEYKRTIERKQQGLEDAEQELLSDDASSVSQIQSQTQSPQNVPEKLEENHELFSKSFISMEVPVMVVNGKDDMHDVEDELAKRVSRLSTSTTIENIEITIKSPEKIEEVLSPEGSPSKSPSKKKKKFRTPSFLKKNKKKEKVEA
B4: NUMB (protein, UniProt P49757 1-651)
chain: MNKLRQSFRRKKDVYVPEASRPHQWQTDEEGVRTGKCSFPVKYLGHVEVDESRGMHICEDAVKRLKAERKFFKGFFGKTGKKAVKAVLWVSADGLRVVDEKTKDLIVDQTIEKVSFCAPDRNFDRAFSYICRDGTTRRWICHCFMAVKDTGERLSHAVGCAFAACLERKQKREKECGVTATFDASRTTFTREGSFRVTTATEQAEREEIMKQMQDAKKAETDKIVVGSSVAPGNTAPSPSSPTSPTSDATTSLEMNNPHAIPRRHAPIEQLARQGSFRGFPALSQKMSPFKRQLSLRINELPSTMQRKTDFPIKNAVPEVEGEAESISSLCSQITNAFSTPEDPFSSAPMTKPVTVVAPQSPTFQANGTDSAFHVLAKPAHTALAPVAMPVRETNPWAHAPDAANKEIAATCSGTEWGQSSGAASPGLFQAGHRRTPSEADRWLEEVSKSVRAQQPQASAAPLQPVLQPPPPTAISQPASPFQGNAFLTSQPVPVGVVPALQPAFVPAQSYPVANGMPYPAPNVPVVGITPSQMVANVFGTAGHPQAAHPHQSPSLVRQQTFPHYEASSATTSPFFKPPAQHLNGSAAFNGVDDGRLASADRHTEVPTGTCPVDPFEAQWAALENKSKQRTNPSPTNPFSSDLQKTFEIEL
B5: formin-binding protein 1 (FNBP1) (protein, UniProt Q96RU3 1-617)
chain: MSWGTELWDQFDNLEKHTQWGIDILEKYIKFVKERTEIELSYAKQLRNLSKKYQPKKNSKEEEEYKYTSCKAFISNLNEMNDYAGQHEVISENMASQIIVDLARYVQELKQERKSNFHDGRKAQQHIETCWKQLESSKRRFERDCKEADRAQQYFEKMDADINVTKADVEKARQQAQIRHQMAEDSKADYSSILQKFNHEQHEYYHTHIPNIFQKIQEMEERRIVRMGESMKTYAEVDRQVIPIIGKCLDGIVKAAESIDQKNDSQLVIEAYKSGFEPPGDIEFEDYTQPMKRTVSDNSLSNSRGEGKPDLKFGGKSKGKLWPFIKKNKLMSLLTSPHQPPPPPPASASPSAVPNGPQSPKQQKEPLSHRFNEFMTSKPKIHCFRSLKRGLSLKLGATPEDFSNLPPEQRRKKLQQKVDELNKEIQKEMDQRDAITKMKDVYLKNPQMGDPASLDHKLAEVSQNIEKLRVETQKFEAWLAEVEGRLPARSEQARRQSGLYDSQNPPTVNNCAQDRESPDGSYTEEQSQESEMKVLATDFDDEFDDEEPLPAIGTCKALYTFEGQNEGTISVVEGETLYVIEEDKGDGWTRIRRNEDEEGYVPTSYVEVCLDKNAKDS
B6: GPR124 (protein, UniProt Q96PE1 34-1338)
chain: APGCPLSIRSCKCSGERPKGLSGGVPGPARRRVVCSGGDLPEPPEPGLLPNGTVTLLLSNNKITGLRNGSFLGLSLLEKLDLRNNIISTVQPGAFLGLGELKRLDLSNNRIGCLTSETFQGLPRLLRLNISGNIFSSLQPGVFDELPALKVVDLGTEFLTCDCHLRWLLPWAQNRSLQLSEHTLCAYPSALHAQALGSLQEAQLCCEGALELHTHHLIPSLRQVVFQGDRLPFQCSASYLGNDTRIRWYHNRAPVEGDEQAGILLAESLIHDCTFITSELTLSHIGVWASGEWECTVSMAQGNASKKVEIVVLETSASYCPAERVANNRGDFRWPRTLAGITAYQSCLQYPFTSVPLGGGAPGTRASRRCDRAGRWEPGDYSHCLYTNDITRVLYTFVLMPINASNALTLAHQLRVYTAEAASFSDMMDVVYVAQMIQKFLGYVDQIKELVEVMVDMASNLMLVDEHLLWLAQREDKACSRIVGALERIGGAALSPHAQHISVNARNVALEAYLIKPHSYVGLTCTAFQRREGGVPGTRPGSPGQNPPPEPEPPADQQLRFRCTTGRPNVSLSSFHIKNSVALASIQLPPSLFSSLPAALAPPVPPDCTLQLLVFRNGRLFHSHSNTSRPGAAGPGKRRGVATPVIFAGTSGCGVGNLTEPVAVSLRHWAEGAEPVAAWWSQEGPGEAGGWTSEGCQLRSSQPNVSALHCQHLGNVAVLMELSAFPREVGGAGAGLHPVVYPCTALLLLCLFATIITYILNHSSIRVSRKGWHMLLNLCFHIAMTSAVFAGGITLTNYQMVCQAVGITLHYSSLSTLLWMGVKARVLHKELTWRAPPPQEGDPALPTPSPMLRFYLIAGGIPLIICGITAAVNIHNYRDHSPYCWLVWRPSLGAFYIPVALILLITWIYFLCAGLRLRGPLAQNPKAGNSRASLEAGEELRGSTRLRGSGPLLSDSGSLLATGSARVGTPGPPEDGDSLYSPGVQLGALVTTHFLYLAMWACGALAVSQRWLPRVVCSCLYGVAASALGLFVFTHHCARRRDVRASWRACCPPASPAAPHAPPRALPAAAEDGSPVFGEGPPSLKSSPSGSSGHPLALGPCKLTNLQLAQSQVCEAGAAAGGEGEPEPAGTRGNLAHRHPNNVHHGRRAHKSRAKGHRAGEACGKNRLKALRGGAAGALELLSSESGSLHNSPTDSYLGSSRNSPGAGLQLEGEPMLTPSEGSDTSAAPLSEAGRAGQRRSASRDSLKGGGALEKESHRRSYPLNAASLNGAPKGGKYDDVTLMGAEVASGGCMKTGLWKSETTV

Molecular target: T1, BirA*–MYO1F tail PHmut (human)
Assay: proximity labelling; BioID in U937 cells stably expressing BirA*–MYO1F tail, PHmut or ΔSH3; 50 µM biotin for 24 h; RIPA lysis; streptavidin beads; mass spectrometry, LFQ against BirA*-only control, threshold 4-fold or greater enrichment

| binding | Molecule |
| --- | --- |
| binds | B1 |

Molecular target: T2, BirA*–MYO1F tail (human)
Assay: as above

| binding | Molecule |
| --- | --- |
| binds | B2 |
| binds | B3 |
| binds | B4 |
| binds | B5 |
| binds | B1 |
| binds | B6 |

Molecular target: T2, BirA*–MYO1F tail (human)
Assay: as above
Remark: another data set of the same source

| binding | Molecule |
| --- | --- |
| binds | FYN-binding protein (FYB) (from UniProt O15117 1-783) |
| binds | Wiskott–Aldrich syndrome protein (WAS) (from UniProt P42768 1-502) |
